Results are given in words; binding and its absence hold for the method and conditions named. In cells and extracts the contact can be indirect. Here binding means that the protein was enriched with, or labelled near, the bait; the list need not be complete. Tags and fused reporters may be left off the sequences shown.
B1: CDYL2 (protein, UniProt Q8N8U2 1-506)
chain: MASGDLYEVERIVDKRKNKKGKWEYLIRWKGYGSTEDTWEPEHHLLHCEEFIDEFNGLHMSKDKRIKSGKQSSTSKLLRDSRGPSVEKLSHRPSDPGKSKGTSHKRKRINPPLAKPKKGYSGKPSSGGDRATKTVSYRTTPSGLQIMPLKKSQNGMENGDAGSEKDERHFGNGSHQPGLDLNDHVGEQDMGECDVNHATLAENGLGSALTNGGLNLHSPVKRKLEAEKDYVFDKRLRYSVRQNESNCRFRDIVVRKEEGFTHILLSSQTSDNNALTPEIMKEVRRALCNAATDDSKLLLLSAVGSVFCSGLDYSYLIGRLSSDRRKESTRIAEAIRDFVKAFIQFKKPIVVAINGPALGLGASILPLCDIVWASEKAWFQTPYATIRLTPAGCSSYTFPQILGVALANEMLFCGRKLTAQEACSRGLVSQVFWPTTFSQEVMLRVKEMASCSAVVLEESKCLVRSFLKSVLEDVNEKECLMLKQLWSSSKGLDSLFSYLQDKIYEV
B2: MBD1 (protein, UniProt Q9UIS9 1-605)
chain: MAEDWLDCPALGPGWKRREVFRKSGATCGRSDTYYQSPTGDRIRSKVELTRYLGPACDLTLFDFKQGILCYPAPKAHPVAVASKKRKKPSRPAKTRKRQVGPQSGEVRKEAPRDETKADTDTAPASFPAPGCCENCGISFSGDGTQRQRLKTLCKDCRAQRIAFNREQRMFKRVGCGECAACQVTEDCGACSTCLLQLPHDVASGLFCKCERRRCLRIVERSRGCGVCRGCQTQEDCGHCPICLRPPRPGLRRQWKCVQRRCLRGKHARRKGGCDSKMAARRRPGAQPLPPPPPSQSPEPTEPHPRALAPSPPAEFIYYCVDEDELQPYTNRRQNRKCGACAACLRRMDCGRCDFCCDKPKFGGSNQKRQKCRWRQCLQFAMKRLLPSVWSESEDGAGSPPPYRRRKRPSSARRHHLGPTLKPTLATRTAQPDHTQAPTKQEAGGGFVLPPPGTDLVFLREGASSPVQVPGPVAASTEALLQEAQCSGLSWVVALPQVKQEKADTQDEWTPGTAVLTSPVLVPGCPSKAVDPGLPSVKQEPPDPEEDKEENKDDSASKLAPEEEAGGAGTPVITEIFSLGGTRFRDTAVWLPRSKDLKKPGARKQ
B3: MIER2 (protein, UniProt Q8N344 1-545)
chain: MAEASSLGRQSPRVVSCLEHSLCPGEPGLQTTAVVSMGSGDHQFNLAEILSQNYSVRGECEEASRCPDKPKEELEKDFISQSNDMPFDELLALYGYEASDPISDRESEGGDVAPNLPDMTLDKEQIAKDLLSGEEEEETQSSADDLTPSVTSHEASDLFPNRSGSRFLADEDREPGSSASSDTEEDSLPANKCKKEIMVGPQFQADLSNLHLNRHCEKIYENEDQLLWDPSVLPEREVEEFLYRAVKRRWHEMAGPQLPEGEAVKDSEQALYELVKCNFNVEEALRRLRFNVKVIRDGLCAWSEEECRNFEHGFRVHGKNFHLIQANKVRTRSVGECVEYYYLWKKSERYDYFAQQTRLGRRKYVPSGTTDADQDLDGSDPDGPGRPRPEQDTLTGMRTDPLSVDGTAGGLDEPGVASDGLPSSEPGPCSFQQLDESPAVPLSHRPPALADPASYQPAVTAPEPDASPRLAVDFALPKELPLISSHVDLSGDPEETVAPAQVALSVTEFGLIGIGDVNPFLAAHPTCPAPGLHSEPLSHCNVMTC
B4: CDYL1 (protein, UniProt Q9Y232 1-598)
chain: MTFQASHRSAWGKSRKKNWQYEGPTQKLFLKRNNVSAPDGPSDPSISVSSEQSGAQQPPALQVERIVDKRKNKKGKTEYLVRWKGYDSEDDTWEPEQHLVNCEEYIHDFNRRHTEKQKESTLTRTNRTSPNNARKQISRSTNSNFSKTSPKALVIGKDHESKNSQLFAASQKFRKNTAPSLSSRKNMDLAKSGIKILVPKSPVKSRTAVDGFQSESPEKLDPVEQGQEDTVAPEVAAEKPVGALLGPGAERARMGSRPRIHPLVPQVPGPVTAAMATGLAVNGKGTSPFMDALTANGTTNIQTSVTGVTASKRKFIDDRRDQPFDKRLRFSVRQTESAYRYRDIVVRKQDGFTHILLSTKSSENNSLNPEVMREVQSALSTAAADDSKLVLLSAVGSVFCCGLDFIYFIRRLTDDRKRESTKMAEAIRNFVNTFIQFKKPIIVAVNGPAIGLGASILPLCDVVWANEKAWFQTPYTTFGQSPDGCSTVMFPKIMGGASANEMLLSGRKLTAQEACGKGLVSQVFWPGTFTQEVMVRIKELASCNPVVLEESKALVRCNMKMELEQANERECEVLKKIWGSAQGMDSMLKYLQRKIDEF

Sequences of proteins named here, by UniProt entry; tags and fusion partners are left off.
UniProt Q9NR30: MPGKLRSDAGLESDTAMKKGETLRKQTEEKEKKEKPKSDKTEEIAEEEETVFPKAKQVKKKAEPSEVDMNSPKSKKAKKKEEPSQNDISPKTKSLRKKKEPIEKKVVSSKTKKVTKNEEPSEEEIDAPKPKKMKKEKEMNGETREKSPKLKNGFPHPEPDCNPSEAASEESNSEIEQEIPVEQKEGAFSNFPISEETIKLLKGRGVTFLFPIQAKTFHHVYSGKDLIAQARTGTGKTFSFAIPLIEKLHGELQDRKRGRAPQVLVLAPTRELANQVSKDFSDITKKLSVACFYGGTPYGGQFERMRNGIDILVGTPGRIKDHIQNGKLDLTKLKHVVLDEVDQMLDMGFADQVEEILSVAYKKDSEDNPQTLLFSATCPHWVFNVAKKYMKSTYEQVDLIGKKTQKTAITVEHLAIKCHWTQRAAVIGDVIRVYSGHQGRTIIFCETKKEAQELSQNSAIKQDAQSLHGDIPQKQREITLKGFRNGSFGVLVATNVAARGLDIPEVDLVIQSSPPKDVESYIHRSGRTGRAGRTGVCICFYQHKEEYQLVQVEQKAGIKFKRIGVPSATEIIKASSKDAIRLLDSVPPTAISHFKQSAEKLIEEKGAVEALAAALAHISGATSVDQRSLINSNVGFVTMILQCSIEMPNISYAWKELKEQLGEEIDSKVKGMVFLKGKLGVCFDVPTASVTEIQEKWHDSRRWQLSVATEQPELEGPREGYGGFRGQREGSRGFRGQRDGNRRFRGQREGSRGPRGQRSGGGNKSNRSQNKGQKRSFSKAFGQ
UniProt Q96KQ7: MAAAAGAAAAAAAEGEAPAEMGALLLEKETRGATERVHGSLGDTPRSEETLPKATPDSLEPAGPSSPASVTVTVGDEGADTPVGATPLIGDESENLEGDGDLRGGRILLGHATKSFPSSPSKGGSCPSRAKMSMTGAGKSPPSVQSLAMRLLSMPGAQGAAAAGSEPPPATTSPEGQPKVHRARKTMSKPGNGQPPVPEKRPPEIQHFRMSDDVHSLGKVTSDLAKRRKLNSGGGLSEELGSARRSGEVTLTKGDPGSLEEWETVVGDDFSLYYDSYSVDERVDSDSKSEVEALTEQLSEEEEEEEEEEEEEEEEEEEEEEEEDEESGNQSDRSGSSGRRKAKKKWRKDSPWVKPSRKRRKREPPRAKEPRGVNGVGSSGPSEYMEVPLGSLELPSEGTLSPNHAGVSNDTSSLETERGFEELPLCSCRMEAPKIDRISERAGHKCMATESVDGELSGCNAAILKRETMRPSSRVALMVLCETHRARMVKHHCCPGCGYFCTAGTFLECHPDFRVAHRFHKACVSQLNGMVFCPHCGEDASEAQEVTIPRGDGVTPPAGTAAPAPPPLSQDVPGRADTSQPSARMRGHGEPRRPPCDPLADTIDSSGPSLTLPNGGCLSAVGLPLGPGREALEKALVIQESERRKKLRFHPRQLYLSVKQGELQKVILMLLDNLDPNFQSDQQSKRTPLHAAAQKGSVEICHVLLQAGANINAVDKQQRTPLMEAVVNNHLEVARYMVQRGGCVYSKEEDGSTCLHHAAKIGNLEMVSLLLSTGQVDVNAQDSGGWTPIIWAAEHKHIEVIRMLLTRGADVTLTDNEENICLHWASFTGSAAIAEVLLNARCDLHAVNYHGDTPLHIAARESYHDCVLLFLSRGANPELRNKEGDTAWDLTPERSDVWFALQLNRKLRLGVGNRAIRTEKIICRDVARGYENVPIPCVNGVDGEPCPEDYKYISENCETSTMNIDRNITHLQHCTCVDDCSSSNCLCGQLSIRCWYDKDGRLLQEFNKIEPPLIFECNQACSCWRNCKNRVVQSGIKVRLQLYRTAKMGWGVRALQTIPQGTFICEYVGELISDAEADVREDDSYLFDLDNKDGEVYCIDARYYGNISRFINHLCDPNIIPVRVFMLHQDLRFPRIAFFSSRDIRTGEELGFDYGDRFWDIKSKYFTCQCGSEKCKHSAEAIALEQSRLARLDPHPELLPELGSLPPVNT
UniProt Q12873: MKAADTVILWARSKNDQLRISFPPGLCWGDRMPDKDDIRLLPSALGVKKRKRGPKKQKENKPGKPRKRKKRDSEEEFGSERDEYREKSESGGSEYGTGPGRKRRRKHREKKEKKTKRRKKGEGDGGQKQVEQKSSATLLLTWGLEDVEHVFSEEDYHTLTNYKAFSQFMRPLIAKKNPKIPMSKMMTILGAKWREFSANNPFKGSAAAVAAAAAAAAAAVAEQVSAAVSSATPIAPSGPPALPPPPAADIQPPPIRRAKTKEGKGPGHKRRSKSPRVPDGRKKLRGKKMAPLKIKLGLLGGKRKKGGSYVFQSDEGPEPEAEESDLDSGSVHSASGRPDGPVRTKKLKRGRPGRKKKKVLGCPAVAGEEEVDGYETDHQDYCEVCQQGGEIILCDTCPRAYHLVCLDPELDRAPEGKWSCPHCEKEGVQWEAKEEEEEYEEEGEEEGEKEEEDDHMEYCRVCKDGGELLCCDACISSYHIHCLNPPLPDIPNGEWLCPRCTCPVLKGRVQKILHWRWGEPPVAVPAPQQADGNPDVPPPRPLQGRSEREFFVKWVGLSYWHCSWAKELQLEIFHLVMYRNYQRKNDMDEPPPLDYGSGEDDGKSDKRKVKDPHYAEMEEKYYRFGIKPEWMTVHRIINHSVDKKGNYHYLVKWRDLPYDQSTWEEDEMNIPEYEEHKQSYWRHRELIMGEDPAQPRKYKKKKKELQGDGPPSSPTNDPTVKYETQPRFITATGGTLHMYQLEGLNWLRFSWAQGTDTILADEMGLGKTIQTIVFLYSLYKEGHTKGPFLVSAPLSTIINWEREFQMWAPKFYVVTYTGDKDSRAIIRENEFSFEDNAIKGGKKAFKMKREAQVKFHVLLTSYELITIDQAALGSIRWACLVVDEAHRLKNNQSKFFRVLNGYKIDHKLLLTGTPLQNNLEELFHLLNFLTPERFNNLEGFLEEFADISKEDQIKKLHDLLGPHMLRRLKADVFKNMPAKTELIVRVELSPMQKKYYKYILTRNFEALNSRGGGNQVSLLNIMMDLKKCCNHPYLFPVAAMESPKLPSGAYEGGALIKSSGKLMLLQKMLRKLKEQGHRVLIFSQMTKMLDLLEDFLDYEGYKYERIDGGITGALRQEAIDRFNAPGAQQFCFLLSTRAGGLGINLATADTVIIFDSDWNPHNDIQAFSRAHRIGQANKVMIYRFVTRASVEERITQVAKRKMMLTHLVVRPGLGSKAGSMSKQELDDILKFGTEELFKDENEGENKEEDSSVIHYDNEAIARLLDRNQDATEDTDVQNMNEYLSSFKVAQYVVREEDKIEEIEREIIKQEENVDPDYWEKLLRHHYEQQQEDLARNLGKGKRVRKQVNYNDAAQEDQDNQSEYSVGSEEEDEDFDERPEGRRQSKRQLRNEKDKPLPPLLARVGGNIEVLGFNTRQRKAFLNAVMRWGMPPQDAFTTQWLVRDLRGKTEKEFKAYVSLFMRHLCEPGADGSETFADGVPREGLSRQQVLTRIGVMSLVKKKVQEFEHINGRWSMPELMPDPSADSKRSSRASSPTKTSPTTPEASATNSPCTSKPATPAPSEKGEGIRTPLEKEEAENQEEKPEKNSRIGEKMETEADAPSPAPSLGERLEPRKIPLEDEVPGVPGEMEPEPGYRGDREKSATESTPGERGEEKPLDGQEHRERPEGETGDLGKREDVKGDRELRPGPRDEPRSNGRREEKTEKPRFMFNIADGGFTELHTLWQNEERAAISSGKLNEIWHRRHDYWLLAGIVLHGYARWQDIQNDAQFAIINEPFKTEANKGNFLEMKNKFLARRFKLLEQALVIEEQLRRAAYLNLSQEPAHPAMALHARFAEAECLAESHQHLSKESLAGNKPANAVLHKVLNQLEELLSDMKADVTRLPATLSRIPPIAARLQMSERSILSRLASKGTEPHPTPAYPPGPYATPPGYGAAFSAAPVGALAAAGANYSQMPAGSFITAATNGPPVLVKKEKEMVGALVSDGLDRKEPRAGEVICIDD
UniProt P45973: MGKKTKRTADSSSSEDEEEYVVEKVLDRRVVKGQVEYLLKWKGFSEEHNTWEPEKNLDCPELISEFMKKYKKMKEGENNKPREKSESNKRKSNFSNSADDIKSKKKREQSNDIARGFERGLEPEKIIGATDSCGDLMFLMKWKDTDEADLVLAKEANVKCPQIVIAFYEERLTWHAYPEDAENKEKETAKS
UniProt Q13263: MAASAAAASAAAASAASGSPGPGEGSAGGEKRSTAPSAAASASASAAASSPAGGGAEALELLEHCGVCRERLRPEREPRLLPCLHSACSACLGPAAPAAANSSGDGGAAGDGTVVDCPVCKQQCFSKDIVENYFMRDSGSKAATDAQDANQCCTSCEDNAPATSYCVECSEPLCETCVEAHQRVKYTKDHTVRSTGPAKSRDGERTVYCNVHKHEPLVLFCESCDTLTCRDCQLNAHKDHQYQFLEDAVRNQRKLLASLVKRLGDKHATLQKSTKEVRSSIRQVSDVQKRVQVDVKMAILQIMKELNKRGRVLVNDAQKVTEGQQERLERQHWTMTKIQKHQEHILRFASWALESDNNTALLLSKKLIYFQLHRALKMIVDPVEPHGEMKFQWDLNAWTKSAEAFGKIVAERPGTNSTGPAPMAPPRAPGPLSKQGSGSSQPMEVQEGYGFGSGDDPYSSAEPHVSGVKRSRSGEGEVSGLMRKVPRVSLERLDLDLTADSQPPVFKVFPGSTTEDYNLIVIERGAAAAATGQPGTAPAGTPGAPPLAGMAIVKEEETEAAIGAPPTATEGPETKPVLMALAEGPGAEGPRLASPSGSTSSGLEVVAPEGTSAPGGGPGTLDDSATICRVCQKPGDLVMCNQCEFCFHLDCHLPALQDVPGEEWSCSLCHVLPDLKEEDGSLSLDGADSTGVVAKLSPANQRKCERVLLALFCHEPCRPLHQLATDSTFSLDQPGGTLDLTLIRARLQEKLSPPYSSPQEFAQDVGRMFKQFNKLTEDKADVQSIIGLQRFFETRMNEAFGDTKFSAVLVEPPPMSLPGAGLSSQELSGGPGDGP
UniProt P30153: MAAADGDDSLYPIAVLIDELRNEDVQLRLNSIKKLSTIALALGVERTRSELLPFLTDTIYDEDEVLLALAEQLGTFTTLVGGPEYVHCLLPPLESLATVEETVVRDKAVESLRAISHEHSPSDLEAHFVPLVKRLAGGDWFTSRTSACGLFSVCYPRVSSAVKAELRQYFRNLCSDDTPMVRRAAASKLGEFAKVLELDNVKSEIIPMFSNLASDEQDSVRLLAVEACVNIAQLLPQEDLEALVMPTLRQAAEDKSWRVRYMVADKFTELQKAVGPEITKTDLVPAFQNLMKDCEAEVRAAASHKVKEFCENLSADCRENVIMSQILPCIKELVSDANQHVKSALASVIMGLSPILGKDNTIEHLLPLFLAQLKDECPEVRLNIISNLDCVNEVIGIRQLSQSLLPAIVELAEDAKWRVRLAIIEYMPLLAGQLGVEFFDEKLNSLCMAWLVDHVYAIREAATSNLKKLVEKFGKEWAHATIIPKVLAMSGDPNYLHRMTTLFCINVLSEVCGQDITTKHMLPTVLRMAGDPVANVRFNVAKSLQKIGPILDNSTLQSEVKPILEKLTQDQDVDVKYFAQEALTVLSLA
UniProt Q92769: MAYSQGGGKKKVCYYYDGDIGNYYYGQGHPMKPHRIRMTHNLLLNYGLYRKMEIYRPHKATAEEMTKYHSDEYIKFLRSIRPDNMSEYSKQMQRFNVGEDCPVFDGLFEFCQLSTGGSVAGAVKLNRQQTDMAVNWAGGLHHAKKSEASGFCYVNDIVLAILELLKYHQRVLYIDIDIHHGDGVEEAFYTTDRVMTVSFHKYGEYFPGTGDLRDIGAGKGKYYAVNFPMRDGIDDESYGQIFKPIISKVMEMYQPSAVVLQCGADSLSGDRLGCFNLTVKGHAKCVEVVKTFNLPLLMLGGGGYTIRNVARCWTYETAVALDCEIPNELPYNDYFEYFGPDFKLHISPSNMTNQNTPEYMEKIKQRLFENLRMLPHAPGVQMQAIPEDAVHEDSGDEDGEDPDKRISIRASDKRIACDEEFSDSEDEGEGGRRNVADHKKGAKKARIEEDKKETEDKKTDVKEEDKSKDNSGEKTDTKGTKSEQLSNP
UniProt P83916: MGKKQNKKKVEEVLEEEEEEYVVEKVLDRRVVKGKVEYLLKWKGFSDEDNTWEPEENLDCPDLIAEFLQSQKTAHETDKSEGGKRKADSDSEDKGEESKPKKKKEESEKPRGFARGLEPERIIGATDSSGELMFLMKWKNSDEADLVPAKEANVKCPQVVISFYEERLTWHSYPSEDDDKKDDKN
UniProt Q13185: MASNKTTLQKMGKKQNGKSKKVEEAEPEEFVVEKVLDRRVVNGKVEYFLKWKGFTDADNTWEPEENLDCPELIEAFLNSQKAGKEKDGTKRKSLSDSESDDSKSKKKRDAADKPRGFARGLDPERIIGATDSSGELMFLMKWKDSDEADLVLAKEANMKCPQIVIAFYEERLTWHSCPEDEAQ

Each molecule was assayed against T1, His6-Protein-C-tagged BAHD1 (UniProt Q8TBE0) (assay: affinity purification with mass spectrometry; first-step purification only (E1, anti-protein C affinity matrix) of His6-Protein-C-BAHD1 from solubilized chromatin extracts of HPT-BAHD1 cells; mass spectrometry).
T1 sequence: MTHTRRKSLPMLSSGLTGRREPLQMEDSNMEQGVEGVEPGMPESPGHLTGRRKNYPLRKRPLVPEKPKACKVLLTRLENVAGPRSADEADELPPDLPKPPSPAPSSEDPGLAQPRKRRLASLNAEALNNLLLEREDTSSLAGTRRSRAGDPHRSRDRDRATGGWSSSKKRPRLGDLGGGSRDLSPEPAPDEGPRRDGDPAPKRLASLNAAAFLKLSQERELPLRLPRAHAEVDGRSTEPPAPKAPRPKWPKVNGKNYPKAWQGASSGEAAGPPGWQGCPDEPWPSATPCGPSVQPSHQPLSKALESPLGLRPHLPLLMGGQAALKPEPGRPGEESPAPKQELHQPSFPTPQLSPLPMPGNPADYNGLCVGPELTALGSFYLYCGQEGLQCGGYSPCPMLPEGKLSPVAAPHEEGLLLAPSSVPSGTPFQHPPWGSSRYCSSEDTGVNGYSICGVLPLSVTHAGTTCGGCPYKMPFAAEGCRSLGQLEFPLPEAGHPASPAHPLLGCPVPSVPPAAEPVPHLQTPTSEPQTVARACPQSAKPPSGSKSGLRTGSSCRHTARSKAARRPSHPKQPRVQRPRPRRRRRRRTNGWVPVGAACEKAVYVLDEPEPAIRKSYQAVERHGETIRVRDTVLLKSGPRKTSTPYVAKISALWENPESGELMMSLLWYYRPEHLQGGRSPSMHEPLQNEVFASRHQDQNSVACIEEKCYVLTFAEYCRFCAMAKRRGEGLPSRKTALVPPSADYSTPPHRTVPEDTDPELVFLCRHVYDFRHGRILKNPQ

binding, binds:
DDX21 (from UniProt Q9NR30 1-783)
RUVBL1 (from UniProt Q9Y265 1-456)
G9a (from UniProt Q96KQ7 1-1210) (enzyme)
CHD3 (from UniProt Q12873 1-2000)
HP1α (from UniProt P45973 1-191)
B1

Each molecule was assayed against T1, His6-Protein-C-tagged BAHD1 (assay: affinity purification with mass spectrometry; tandem affinity purification of His6-Protein-C-BAHD1 from solubilized chromatin extracts of HPT-BAHD1 cells: anti-protein C affinity matrix (E1), then nickel-Sepharose (E2); eluate after the two steps separated by SDS-PAGE and analysed by mass spectrometry; HPT-CT cells as control).

binding, binds:
KAP1 (from UniProt Q13263 1-835)
PPP2R1A (from UniProt P30153 1-589)
HDAC2 (from UniProt Q92769 1-488) (enzyme)
HDAC1 (from UniProt Q13547 1-482) (enzyme)
DDX17 (from UniProt Q92841 1-729)
HP1β (from UniProt P83916 1-185)
HP1γ (from UniProt Q13185 1-183)
B2
B3
B4
